Results published in PubChem BioAssay AID504444 (National Center for Advancing Translational Sciences (NCATS), 2011).
Among all 360,000 compounds or so, about 7,500 (2.1%) were called active. This list was built around the results that the source calls inconclusive (neither active nor inactive); the mix of calls is not that of the screen. The call rests on the fitted dose curve; in most records, active means well fitted inhibition curve with a large enough effect; inconclusive means small, poorly fitted or top-dose-only effect, or effect the other way; inactive means flat fitted curve, though single readings scatter. Potencies beside an inconclusive call are fits to weak or partial responses and may not hold up.

Experiment: Nrf2 qHTS screen for inhibitors; further: nearly all actives have a fitted effect of over 60% in size
Settings: A549 ARE-Fluc reporter, luciferase luminescence, 18-24 h; activity change, negative = inhibition: at 46 µM (top of the series)
Summary of the method: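 Quantitative HTS in A549 cells stably bearing an antioxidant response element-firefly luciferase construct. Inhibition of Nrf2-driven transcription was scored by luminescence after 18-24 h of compound exposure at 37 °C.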
On the % scale 0 is the no-effect control and ±100 the full control effect; potency means the concentration at half of the fitted maximal effect.

SMILES	Potency	activity change, negative = inhibition
S=C(Nc1ccc(Br)cc1)N1CCn2cccc2C1c1cccnc1 (centres undefined)	inconclusive: 14.6 µM [falling, single point]	
CCS(=O)(=O)NCC(c1cccnc1)N1CCN(c2ccccc2F)CC1 (centres undefined)	inactive	
COc1ccc2c(c1)C(=O)N1[C@H]3c4cc(Cl)ccc4OC[C@@H]3[C@H](c3ccccc3)[C@]1(C)C(=O)N2	inactive	
Cc1cccc(CC(=O)c2c[nH]c3ccccc23)c1	inconclusive: 29.1 µM [activator, single point]	
Cc1cc(OC(=O)c2ccccc2Cl)ccc1N1C(=O)CCC1=O	inconclusive: 7.31 µM [falling, partial curve, poor fit]	
O=C(Nc1ncc(Cl)cn1)c1cccs1	inconclusive: 10.3 µM [activator, partial curve]	
Cc1cc(C)nc(OC(C(=O)O)C(OCCc2ccccc2)(c2ccc(F)cc2)c2ccc(F)cc2)n1 (centres undefined)	inconclusive: 20.6 µM [falling, partial curve, poor fit]	
CCOc1cc(NC(=S)NCC2CCCO2)c(OCC)cc1NC(=O)c1ccc(OC)cc1 (centres undefined)	inactive	
CCOc1ccc(C(=O)C[n+]2ccc(C(=O)NCc3ccccc3)cc2)cc1	inconclusive: 23.1 µM [falling, single point]	
COc1ccc(CN2CCN(C(=O)CN3C(=O)C4C5C=CC(C5)C4C3=O)CC2)c(OC)c1OC (centres undefined)	inconclusive: 10 µM [falling, single point]	
O=C(NCCc1ccccc1)c1cccc(N2CCCC2=O)c1	inconclusive: 0.92 µM [activator, partial curve, poor fit]	
CCOc1ccc(-c2cn3c(n2)sc2cc(C(=O)NCCCN4CCCCC4)ccc23)cc1	inactive	
Cc1ccccc1Cn1nc(C)c(NC(=O)c2cc(-c3ccco3)on2)c1C	inactive	
CCCCc1nnc(NC(=O)c2ccc(OCc3c(C)noc3C)cc2)s1	inconclusive: 29.1 µM [falling, single point]	
COc1cc(NC(=O)c2ccccc2F)ccc1NC(=O)c1cc2ccccc2o1	inconclusive: 2.31 µM [falling, partial curve, poor fit]	
COc1cc(OC)c2c(-c3ccccc3)cc(=O)oc2c1C(CCN1CCCC1)c1ccc2c(c1)OCO2 (centres undefined)	inconclusive: 29.1 µM [activator, single point]	
Nc1nc(SCc2ccccc2)ns1	inconclusive: 3.66 µM [activator, partial curve, poor fit]	
Cc1nc(SCc2ccccc2)nc2c1CCC2	inconclusive: 3.26 µM [activator, full curve]	
COc1cc(NC(=O)c2ccc(-c3nc(CSc4ccccc4)c(C)o3)cc2)cc(OC)c1	active: 7.31 µM	
O=C(CSc1ccccc1C(=O)O)c1ccccc1	inconclusive: 9.2 µM [activator, partial curve]	
CN(C)C(CNC(=O)c1cccc(S(=O)(=O)N2CC3(C)CC2CC(C)(C)C3)c1)c1ccco1 (centres undefined)	inconclusive: 13 µM [falling, partial curve]	
CCSc1nnc(NC(=O)c2ccccc2)s1	inconclusive: 20.6 µM [activator, single point]	

Fetched by compound from the entries so far (4):
SMILES	Potency	activity change, negative = inhibition
O=C(Nc1ncc(Cl)cn1)c1cccs1	inconclusive: 10.3 µM [activator, partial curve]	
CCCCc1nnc(NC(=O)c2ccc(OCc3c(C)noc3C)cc2)s1	inconclusive: 29.1 µM [falling, single point]	
Cc1nc(SCc2ccccc2)nc2c1CCC2	inconclusive: 3.26 µM [activator, full curve]	
COc1ccc(CN2CCN(C(=O)CN3C(=O)C4C5C=CC(C5)C4C3=O)CC2)c(OC)c1OC (centres undefined)	inconclusive: 10 µM [falling, single point]	

More compounds:

SMILES	Potency	activity change, negative = inhibition
COCCn1c(=O)[nH]c2cc(C(=O)Nc3cc(C)cc(C)c3)ccc2c1=O	inconclusive: 25.9 µM [falling, partial curve, poor fit]	
Cn1cc(C(N)=O)c2ccccc21	inactive	
COC(=O)c1ccccc1NC(=S)NC(=O)c1ccccc1	inactive	
Cc1ccc(-c2nnc(NC(=O)c3ccc([N+](=O)[O-])o3)o2)c(C)c1	inconclusive: 29.1 µM [activator, single point]	
C[C@@H](CO)NC(=O)c1ccc2c3n(nc2c1)-c1ccccc1CO3	inconclusive: 23.1 µM [falling, single point]	
Cc1ccc(S(=O)(=O)N2CCOCC2)cc1C(=O)Nc1ccc(N2CCCCCC2)cc1	active: 20.6 µM	
CCCCCCSc1ccc([C@@H]2[C@H]3C(=O)N(CC)C(=O)[C@H]3[C@]3(C(=O)OC)CCCCN23)cc1OC	inconclusive: 16.4 µM [falling, single point]	
CCOC(=O)c1ccc2c(c1)N(CC#N)C(=O)C(C)(C)O2	inactive	
COc1cc(OC)cc(-n2c(=O)c3ccccc3n(Cc3ccccc3C#N)c2=O)c1		inactive: 7.86% [at 9.27 µM]
Cc1noc(C)c1C(=O)OCC(=O)c1cc(C)n(Cc2ccccc2Cl)c1C	inconclusive: 29.1 µM [falling, single point]	
O=C(Nc1nc2ccc(F)cc2s1)c1cccc(S(=O)(=O)N2CCc3ccccc32)c1	inactive	
O=C(Nc1ccnc(-c2cccnc2)n1)c1cccc(Cl)c1Cl	inconclusive: 9.2 µM [falling, partial curve]	
CCOC(=O)N1CCN(CCC(=O)c2ccc(OC)cc2)CC1	inactive	
COc1cccc(/C=N/NC(=O)c2cccc([N+](=O)[O-])c2)c1OS(=O)(=O)c1ccccc1	inconclusive: 18.4 µM [falling, single point]	
COc1ccc(C2C=C(c3ccccc3)Nc3nnnn32)cc1 (centres undefined)	inconclusive: 2.91 µM [activator, partial curve, poor fit]	
CCCc1nc2ccccc2c(C(=O)OCC(=O)NCc2ccc3c(c2)OCO3)c1CC	active: 20.6 µM	
CCc1noc(C)c1C(=O)Nc1nc(-c2ccc(Cl)cc2Cl)cs1	inconclusive: 29.1 µM [falling, single point]	
CCCCCCCCCCOC(=O)Cn1c(COc2ccccc2C)[n+](C)c2ccccc21	inconclusive: 29.1 µM [falling, single point]	
O=C(NC1CCCCCC1)c1nc2ncccn2n1	inactive	
CCCNC(=O)Cn1nc(-c2ccc(C)cc2)c2cnc3ccc(CC)cc3c21	inactive	
CCc1ccc(Nc2nc(C)cc(C)n2)cc1	inconclusive: 2.06 µM [activator, full curve, poor fit]	
CCc1ccc2oc(C(=O)Nc3cccnc3)c(C)c2c1	inconclusive: 23.1 µM [activator, partial curve]	
